Results as given in the supplement of paper PMC12819154, “High-throughput peptide-centric local stability assay extends protein–ligand identification to membrane proteins, tissues and bacteria” (Nature Structural & Molecular Biology, 2025).
The other results are listed elsewhere or left out. Most entries show no effect beyond the scatter of the controls.

By UniProt entry, the sequences of proteins in these tests, tags left out. Where a name states a change or a piece, a line headed by the entry shows the natural chain unless it says otherwise.
UniProt P30958: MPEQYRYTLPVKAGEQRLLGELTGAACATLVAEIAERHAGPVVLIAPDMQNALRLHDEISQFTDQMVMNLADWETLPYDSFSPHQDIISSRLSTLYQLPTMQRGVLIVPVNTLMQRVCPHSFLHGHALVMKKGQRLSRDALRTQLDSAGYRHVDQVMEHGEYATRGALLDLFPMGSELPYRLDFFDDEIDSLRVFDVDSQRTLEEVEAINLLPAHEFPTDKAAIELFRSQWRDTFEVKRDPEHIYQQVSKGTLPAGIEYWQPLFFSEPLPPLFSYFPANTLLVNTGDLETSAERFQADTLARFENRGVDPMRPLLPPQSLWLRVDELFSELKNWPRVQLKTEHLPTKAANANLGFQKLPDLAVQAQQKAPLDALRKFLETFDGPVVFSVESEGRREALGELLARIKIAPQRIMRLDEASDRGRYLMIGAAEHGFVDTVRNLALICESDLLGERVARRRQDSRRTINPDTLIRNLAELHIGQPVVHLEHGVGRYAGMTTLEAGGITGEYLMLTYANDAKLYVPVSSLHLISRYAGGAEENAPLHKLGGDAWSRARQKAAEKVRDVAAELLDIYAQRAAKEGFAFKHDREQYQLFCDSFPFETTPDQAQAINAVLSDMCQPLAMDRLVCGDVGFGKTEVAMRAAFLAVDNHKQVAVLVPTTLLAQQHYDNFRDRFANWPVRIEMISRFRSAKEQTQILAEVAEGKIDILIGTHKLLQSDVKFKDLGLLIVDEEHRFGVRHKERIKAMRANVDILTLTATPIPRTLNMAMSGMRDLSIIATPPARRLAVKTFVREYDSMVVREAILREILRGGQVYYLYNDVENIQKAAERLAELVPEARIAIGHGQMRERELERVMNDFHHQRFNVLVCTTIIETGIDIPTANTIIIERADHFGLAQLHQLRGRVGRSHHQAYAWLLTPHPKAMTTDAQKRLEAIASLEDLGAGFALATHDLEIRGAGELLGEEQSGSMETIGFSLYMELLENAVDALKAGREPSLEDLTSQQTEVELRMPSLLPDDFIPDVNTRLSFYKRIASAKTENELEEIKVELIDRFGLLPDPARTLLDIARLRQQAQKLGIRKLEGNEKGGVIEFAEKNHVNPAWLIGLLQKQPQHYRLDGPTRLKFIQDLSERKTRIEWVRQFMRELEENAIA
UniProt P26218: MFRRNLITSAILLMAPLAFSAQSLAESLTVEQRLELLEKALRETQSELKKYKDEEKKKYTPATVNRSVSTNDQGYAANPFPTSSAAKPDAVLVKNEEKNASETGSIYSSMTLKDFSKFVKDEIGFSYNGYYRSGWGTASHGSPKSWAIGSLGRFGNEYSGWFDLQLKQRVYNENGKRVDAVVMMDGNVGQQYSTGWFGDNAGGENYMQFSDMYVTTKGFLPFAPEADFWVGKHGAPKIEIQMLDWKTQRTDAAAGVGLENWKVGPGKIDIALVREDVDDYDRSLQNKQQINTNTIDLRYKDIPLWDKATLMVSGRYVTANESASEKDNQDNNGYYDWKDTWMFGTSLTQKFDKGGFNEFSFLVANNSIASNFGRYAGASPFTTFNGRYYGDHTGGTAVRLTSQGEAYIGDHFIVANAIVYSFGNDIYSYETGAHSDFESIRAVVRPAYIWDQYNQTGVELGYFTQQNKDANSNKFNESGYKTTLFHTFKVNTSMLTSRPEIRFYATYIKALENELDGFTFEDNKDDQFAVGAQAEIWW
UniProt P28905: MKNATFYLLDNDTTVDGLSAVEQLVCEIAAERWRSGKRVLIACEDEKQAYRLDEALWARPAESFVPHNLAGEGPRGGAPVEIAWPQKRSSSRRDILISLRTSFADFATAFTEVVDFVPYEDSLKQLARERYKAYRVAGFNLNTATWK
UniProt P31467: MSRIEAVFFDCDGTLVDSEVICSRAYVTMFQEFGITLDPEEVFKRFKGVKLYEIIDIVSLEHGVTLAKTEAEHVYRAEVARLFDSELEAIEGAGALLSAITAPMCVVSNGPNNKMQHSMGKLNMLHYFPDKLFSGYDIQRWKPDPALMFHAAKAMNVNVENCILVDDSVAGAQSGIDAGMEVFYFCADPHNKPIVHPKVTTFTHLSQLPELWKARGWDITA
UniProt P24188: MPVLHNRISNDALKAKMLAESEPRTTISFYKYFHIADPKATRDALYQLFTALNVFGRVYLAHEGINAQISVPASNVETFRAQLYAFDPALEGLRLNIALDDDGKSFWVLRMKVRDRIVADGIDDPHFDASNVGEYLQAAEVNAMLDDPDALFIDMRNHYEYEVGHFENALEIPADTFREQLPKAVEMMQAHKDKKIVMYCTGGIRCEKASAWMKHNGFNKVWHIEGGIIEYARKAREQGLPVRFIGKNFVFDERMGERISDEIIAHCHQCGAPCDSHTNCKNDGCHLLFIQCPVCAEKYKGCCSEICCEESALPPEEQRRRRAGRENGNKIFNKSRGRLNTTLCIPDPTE
UniProt P24242: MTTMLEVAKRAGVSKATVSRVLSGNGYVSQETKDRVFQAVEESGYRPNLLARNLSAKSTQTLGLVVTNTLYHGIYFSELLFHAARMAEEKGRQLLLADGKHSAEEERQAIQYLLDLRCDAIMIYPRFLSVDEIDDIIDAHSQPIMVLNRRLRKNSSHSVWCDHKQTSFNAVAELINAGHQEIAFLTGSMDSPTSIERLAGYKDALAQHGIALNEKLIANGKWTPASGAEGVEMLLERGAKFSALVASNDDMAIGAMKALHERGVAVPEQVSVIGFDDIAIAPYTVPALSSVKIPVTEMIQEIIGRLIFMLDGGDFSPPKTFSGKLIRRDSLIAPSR
UniProt P28911: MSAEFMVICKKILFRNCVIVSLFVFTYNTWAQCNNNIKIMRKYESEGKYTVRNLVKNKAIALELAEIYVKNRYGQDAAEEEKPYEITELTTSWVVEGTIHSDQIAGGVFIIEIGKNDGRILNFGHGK
UniProt P28304: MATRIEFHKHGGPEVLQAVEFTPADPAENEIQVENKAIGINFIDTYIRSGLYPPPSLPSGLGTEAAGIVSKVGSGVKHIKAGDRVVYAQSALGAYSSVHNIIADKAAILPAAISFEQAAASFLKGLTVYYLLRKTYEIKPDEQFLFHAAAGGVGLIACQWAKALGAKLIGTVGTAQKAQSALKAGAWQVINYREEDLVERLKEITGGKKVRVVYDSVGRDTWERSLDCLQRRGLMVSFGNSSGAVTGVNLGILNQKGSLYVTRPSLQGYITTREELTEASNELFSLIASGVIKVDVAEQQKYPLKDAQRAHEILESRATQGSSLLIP
UniProt P27126: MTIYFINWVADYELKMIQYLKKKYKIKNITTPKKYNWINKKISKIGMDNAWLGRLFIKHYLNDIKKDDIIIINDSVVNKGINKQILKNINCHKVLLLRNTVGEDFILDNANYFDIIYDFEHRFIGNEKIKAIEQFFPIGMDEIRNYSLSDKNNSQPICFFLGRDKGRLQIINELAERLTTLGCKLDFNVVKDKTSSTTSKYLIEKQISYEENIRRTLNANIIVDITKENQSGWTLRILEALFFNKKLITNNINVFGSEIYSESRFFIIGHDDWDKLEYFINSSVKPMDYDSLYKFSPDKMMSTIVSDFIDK
UniProt P25738: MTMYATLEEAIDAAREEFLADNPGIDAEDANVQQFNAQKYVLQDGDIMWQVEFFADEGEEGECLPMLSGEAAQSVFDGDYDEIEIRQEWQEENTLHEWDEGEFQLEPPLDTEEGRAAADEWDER
UniProt P27297: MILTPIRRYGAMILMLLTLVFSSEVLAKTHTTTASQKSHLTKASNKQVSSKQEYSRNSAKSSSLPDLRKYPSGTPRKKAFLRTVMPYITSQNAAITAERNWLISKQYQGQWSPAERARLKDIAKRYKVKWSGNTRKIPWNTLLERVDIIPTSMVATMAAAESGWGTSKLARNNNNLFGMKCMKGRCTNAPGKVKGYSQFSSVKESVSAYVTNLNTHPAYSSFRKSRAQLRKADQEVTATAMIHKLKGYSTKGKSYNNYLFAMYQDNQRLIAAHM
UniProt P33013: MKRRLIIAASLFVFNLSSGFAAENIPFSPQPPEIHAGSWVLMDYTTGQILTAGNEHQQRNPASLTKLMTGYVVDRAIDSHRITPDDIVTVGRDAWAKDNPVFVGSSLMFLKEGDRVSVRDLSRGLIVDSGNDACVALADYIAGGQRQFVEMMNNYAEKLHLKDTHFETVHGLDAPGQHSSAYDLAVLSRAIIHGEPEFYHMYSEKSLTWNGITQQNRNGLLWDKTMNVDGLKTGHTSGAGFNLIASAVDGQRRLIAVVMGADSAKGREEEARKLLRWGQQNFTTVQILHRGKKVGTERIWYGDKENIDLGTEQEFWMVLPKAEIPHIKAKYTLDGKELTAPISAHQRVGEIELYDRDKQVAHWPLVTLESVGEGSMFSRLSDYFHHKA
UniProt P24202: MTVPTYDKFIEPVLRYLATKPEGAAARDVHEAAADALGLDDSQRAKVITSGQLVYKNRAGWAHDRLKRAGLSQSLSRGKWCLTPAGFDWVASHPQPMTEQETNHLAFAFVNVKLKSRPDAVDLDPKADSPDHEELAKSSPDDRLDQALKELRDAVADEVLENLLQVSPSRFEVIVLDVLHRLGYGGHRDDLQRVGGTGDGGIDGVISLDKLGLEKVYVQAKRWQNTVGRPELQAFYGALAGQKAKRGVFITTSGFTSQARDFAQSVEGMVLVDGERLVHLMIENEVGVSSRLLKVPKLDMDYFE
UniProt P28629: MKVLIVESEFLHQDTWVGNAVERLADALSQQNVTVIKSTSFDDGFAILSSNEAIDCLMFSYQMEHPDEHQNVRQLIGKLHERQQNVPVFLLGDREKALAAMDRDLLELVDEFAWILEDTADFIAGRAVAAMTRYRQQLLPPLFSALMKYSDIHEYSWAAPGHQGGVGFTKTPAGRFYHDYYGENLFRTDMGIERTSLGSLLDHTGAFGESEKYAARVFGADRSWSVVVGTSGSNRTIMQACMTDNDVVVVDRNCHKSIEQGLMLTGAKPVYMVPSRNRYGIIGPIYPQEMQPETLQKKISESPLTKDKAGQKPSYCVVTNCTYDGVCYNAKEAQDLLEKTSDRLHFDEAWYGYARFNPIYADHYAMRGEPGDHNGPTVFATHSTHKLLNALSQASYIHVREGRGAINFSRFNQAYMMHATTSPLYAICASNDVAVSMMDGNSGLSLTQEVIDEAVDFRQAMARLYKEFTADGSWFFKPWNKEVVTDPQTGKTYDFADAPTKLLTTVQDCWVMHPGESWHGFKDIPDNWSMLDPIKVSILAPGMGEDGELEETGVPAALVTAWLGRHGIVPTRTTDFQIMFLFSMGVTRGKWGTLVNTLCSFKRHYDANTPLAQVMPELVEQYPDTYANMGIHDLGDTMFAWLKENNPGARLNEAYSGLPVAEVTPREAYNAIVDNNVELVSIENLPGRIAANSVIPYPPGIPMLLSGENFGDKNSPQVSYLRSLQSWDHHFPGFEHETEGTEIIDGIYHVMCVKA
UniProt P33355: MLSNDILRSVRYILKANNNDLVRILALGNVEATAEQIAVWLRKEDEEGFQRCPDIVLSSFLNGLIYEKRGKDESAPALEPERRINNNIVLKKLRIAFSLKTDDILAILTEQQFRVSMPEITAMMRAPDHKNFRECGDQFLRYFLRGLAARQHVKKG
UniProt P33014: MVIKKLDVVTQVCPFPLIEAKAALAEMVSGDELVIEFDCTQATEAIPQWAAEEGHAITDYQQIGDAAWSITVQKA
UniProt P30178: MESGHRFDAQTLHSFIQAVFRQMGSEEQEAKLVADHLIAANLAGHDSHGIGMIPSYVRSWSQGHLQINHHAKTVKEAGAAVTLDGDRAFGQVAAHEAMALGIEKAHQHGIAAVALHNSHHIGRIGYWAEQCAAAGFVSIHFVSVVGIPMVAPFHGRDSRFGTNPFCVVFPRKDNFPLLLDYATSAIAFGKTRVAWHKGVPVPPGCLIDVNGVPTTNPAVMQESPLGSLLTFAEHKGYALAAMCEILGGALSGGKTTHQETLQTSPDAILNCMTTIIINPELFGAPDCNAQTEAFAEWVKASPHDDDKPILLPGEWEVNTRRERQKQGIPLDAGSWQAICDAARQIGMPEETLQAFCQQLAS
UniProt P31470: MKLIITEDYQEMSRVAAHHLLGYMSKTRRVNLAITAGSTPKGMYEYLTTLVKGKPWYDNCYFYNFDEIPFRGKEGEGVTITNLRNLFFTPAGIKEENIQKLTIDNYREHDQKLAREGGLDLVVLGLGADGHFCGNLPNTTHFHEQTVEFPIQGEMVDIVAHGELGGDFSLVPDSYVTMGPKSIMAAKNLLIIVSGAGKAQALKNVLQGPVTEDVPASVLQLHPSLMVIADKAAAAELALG
UniProt P30864: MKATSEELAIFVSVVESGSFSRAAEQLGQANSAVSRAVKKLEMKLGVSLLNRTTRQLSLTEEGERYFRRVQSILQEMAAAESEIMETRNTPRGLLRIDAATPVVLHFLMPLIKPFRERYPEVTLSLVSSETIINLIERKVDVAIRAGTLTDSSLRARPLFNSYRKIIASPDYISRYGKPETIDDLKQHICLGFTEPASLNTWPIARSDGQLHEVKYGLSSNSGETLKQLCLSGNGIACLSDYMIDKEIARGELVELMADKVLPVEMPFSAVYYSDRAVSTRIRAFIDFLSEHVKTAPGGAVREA

compound: CC1(C)S[C@@H]2[C@H](NC(=O)[C@H](N)c3ccccc3)C(=O)N2[C@H]1C(=O)O [ampicillin]; assay: log2 fold change of tryptic peptide abundance, ligand vs vehicle (limited proteolysis) (log2 ratio); higher = more trypsin-susceptible (destabilized); conditions: ligand concentration: 10 uM; sample: E. coli crude lysate

Target | log2 fold change
UniProt P30958 (peptide sequence: NLAELHIGQPVVHLEHGVGR, peptide start residue: 473) | 0.355
UniProt P26218 (peptide sequence: DFSKFVK, peptide start residue: 114) | 0.16
UniProt P28905 (peptide sequence: VLIACEDEK, peptide start residue: 39) | 0.484
UniProt P27249 (peptide sequence: HLLQHDLSK, peptide start residue: 686) | -0.299
UniProt P30847 (peptide sequence: LAAGDFTTR, peptide start residue: 203) | 0.305
UniProt P24241 (peptide sequence: KYQSVQPTVAK, peptide start residue: 470) | -0.517
UniProt P31467 (peptide sequence: TEAEHVYR, peptide start residue: 69) | -0.554
UniProt P24188 (peptide sequence: KIVMYCTGGIRCEK, peptide start residue: 195) | -0.335
UniProt P31666 (peptide sequence: GFIDKGHLEPVQGR, peptide start residue: 73) | 0.0348
UniProt P24242 (peptide sequence: QAIQYLLDLR, peptide start residue: 108) | -0.54
UniProt P28911 (peptide sequence: ILNFGHGK, peptide start residue: 120) | -0.197
UniProt P29012 (peptide sequence: IEQAAEGLECRR, peptide start residue: 176) | -0.224
UniProt P28304 (peptide sequence: VVYDSVGRDTWER, peptide start residue: 212) | -0.503
UniProt P31224 (peptide sequence: VLNEVTHYYLTK, peptide start residue: 590) | -0.501
UniProt P27126 (peptide sequence: KDDIIIINDSVVNK, peptide start residue: 66) | 0.423
UniProt P25738 (peptide sequence: AAADEWDER, peptide start residue: 116) | -0.038

Target | log2 fold change
UniProt P27297 (peptide sequence: SSSLPDLR, peptide start residue: 61) | -0.13
UniProt P33013 (peptide sequence: TMNVDGLK, peptide start residue: 225) | -0.343
UniProt P24202 (peptide sequence: VITSGQLVYK, peptide start residue: 47) | 0.111
UniProt P28629 (peptide sequence: GEPGDHNGPTVFATHSTHK, peptide start residue: 368) | 0.862
UniProt P32167 (peptide sequence: VEGGLSVEQQQKLAQTAK, peptide start residue: 91) | -0.317
UniProt P30140 (peptide sequence: EMGFEHLLLVTGEHQAK, peptide start residue: 119) | -0.202
UniProt P33219 (peptide sequence: SADIHYQVSVDCKAGMAEYQRR, peptide start residue: 97) | -0.577
UniProt P29018 (peptide sequence: DLSPESWR, peptide start residue: 415) | -0.146
UniProt P25798 (peptide sequence: MNVGDVQR, peptide start residue: 369) | -0.17
UniProt P33355 (peptide sequence: GKDESAPALEPERR, peptide start residue: 70) | 0.221
UniProt P27431 (peptide sequence: EMMLELINQPEHFK, peptide start residue: 252) | -0.129
UniProt P33014 (peptide sequence: KLDVVTQVCPFPLIEAK, peptide start residue: 5) | 0.0783
UniProt P30178 (peptide sequence: AFGQVAAHEAMALGIEK, peptide start residue: 88) | -0.114
UniProt P31470 (peptide sequence: RVNLAITAGSTPK, peptide start residue: 29) | -0.22
UniProt P30864 (peptide sequence: KIIASPDYISR, peptide start residue: 165) | -0.52

Reprinted at random: two records from the list.
Target | log2 fold change
UniProt P33014 (peptide sequence: KLDVVTQVCPFPLIEAK, peptide start residue: 5) | 0.0783
UniProt P29018 (peptide sequence: DLSPESWR, peptide start residue: 415) | -0.146
